{"source": "PubChem BioAssay AID1259254 (NCATS, 2017)", "test": "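Genome-wide screen for genes that prevent DNA re-replication in cancer cells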 (primary screen)", "system": "human HCT116 colorectal cancer cells", "knock-down reagent": "single siRNA against human genes", "time to read-out": "3 days", "measured": "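Nuclei stained with Hoechst and imaged; cell-cycle phase assigned by DNA content; G2 share scaled per plate, non-targeting siRNA 0%, GMNN siRNA 100%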", "reading the numbers": "G2 robust z-score: higher = more G2 cells, more excess DNA replication", "hit rule": "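An siRNA counts as active if its G2 robust z-score lies at least 5 MADs above the screen median; here such calls match roughly 38% of GMNN control or more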", "note": "This is an unselected part of about 59,000 reagents tested. About 1,550 of them (2.6%) were called active. 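G2 share is only a proxy for re-replication; each gene was hit by three separate siRNAs, and active genes were retested.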 The numbers tell different reagents against one gene apart. Not all columns of the deposit are shown. Not stated in the record: the amount of reagent."}
{"gene": "HMGCL (3-hydroxy-3-methylglutaryl-CoA lyase)", "reagent no.": 1, "G2 robust z-score": 2.78, "call": "inactive"}
{"gene": "HMGCL (3-hydroxy-3-methylglutaryl-CoA lyase)", "reagent no.": 2, "G2 robust z-score": 0.302, "call": "inactive"}
{"gene": "HMGCL (3-hydroxy-3-methylglutaryl-CoA lyase)", "reagent no.": 3, "G2 robust z-score": -0.929, "call": "inactive"}
{"gene": "CFAP43 (cilia and flagella associated protein 43)", "reagent no.": 1, "G2 robust z-score": -0.366, "call": "inactive"}
{"gene": "CFAP43 (cilia and flagella associated protein 43)", "reagent no.": 2, "G2 robust z-score": -0.642, "call": "inactive"}
{"gene": "CFAP43 (cilia and flagella associated protein 43)", "reagent no.": 3, "G2 robust z-score": -0.614, "call": "inactive"}
{"gene": "SPDYE4 (speedy/RINGO cell cycle regulator family member E4)", "reagent no.": 1, "G2 robust z-score": -0.378, "call": "inactive"}
{"gene": "SPDYE4 (speedy/RINGO cell cycle regulator family member E4)", "reagent no.": 2, "G2 robust z-score": 1.05, "call": "inactive"}
{"gene": "SPDYE4 (speedy/RINGO cell cycle regulator family member E4)", "reagent no.": 3, "G2 robust z-score": -0.228, "call": "inactive"}
{"gene": "TBX3 (T-box transcription factor 3)", "reagent no.": 1, "G2 robust z-score": -1.19, "call": "inactive"}
{"gene": "TBX3 (T-box transcription factor 3)", "reagent no.": 2, "G2 robust z-score": 2.61, "call": "inactive"}
{"gene": "TBX3 (T-box transcription factor 3)", "reagent no.": 3, "G2 robust z-score": -0.724, "call": "inactive"}
{"gene": "BIRC6 (baculoviral IAP repeat containing 6)", "reagent no.": 1, "G2 robust z-score": -0.8, "call": "inactive"}
{"gene": "BIRC6 (baculoviral IAP repeat containing 6)", "reagent no.": 2, "G2 robust z-score": -0.779, "call": "inactive"}
{"gene": "BIRC6 (baculoviral IAP repeat containing 6)", "reagent no.": 3, "G2 robust z-score": -0.0474, "call": "inactive"}
{"gene": "GTF2I (general transcription factor IIi)", "reagent no.": 1, "G2 robust z-score": 0.253, "call": "inactive"}
{"gene": "GTF2I (general transcription factor IIi)", "reagent no.": 2, "G2 robust z-score": 3.56, "call": "inactive"}
{"gene": "GTF2I (general transcription factor IIi)", "reagent no.": 3, "G2 robust z-score": 1.29, "call": "inactive"}
{"gene": "GTF2I (general transcription factor IIi)", "reagent no.": 4, "G2 robust z-score": -0.446, "call": "inactive"}
{"gene": "GTF2I (general transcription factor IIi)", "reagent no.": 5, "G2 robust z-score": -1.06, "call": "inactive"}
{"gene": "GTF2I (general transcription factor IIi)", "reagent no.": 6, "G2 robust z-score": 0.588, "call": "inactive"}
{"gene": "TRPM8", "reagent no.": 1, "G2 robust z-score": 0.349, "call": "inactive"}
{"gene": "TRPM8", "reagent no.": 2, "G2 robust z-score": 4.16, "call": "inactive"}
{"gene": "TRPM8", "reagent no.": 3, "G2 robust z-score": 0.695, "call": "inactive"}
{"gene": "SCMH1 (Scm polycomb group protein homolog 1)", "reagent no.": 1, "G2 robust z-score": -1.32, "call": "inactive"}
{"gene": "SCMH1 (Scm polycomb group protein homolog 1)", "reagent no.": 2, "G2 robust z-score": 0.85, "call": "inactive"}
{"gene": "SCMH1 (Scm polycomb group protein homolog 1)", "reagent no.": 3, "G2 robust z-score": 4.76, "call": "inactive"}
{"gene": "AAAS (aladin WD repeat nucleoporin)", "reagent no.": 1, "G2 robust z-score": -0.928, "call": "inactive"}
{"gene": "AAAS (aladin WD repeat nucleoporin)", "reagent no.": 2, "G2 robust z-score": 0.904, "call": "inactive"}
{"gene": "AAAS (aladin WD repeat nucleoporin)", "reagent no.": 3, "G2 robust z-score": -0.056, "call": "inactive"}

Reprinted from above (3 entries):
{"gene": "AAAS (aladin WD repeat nucleoporin)", "reagent no.": 1, "G2 robust z-score": -0.928, "call": "inactive"}
{"gene": "AAAS (aladin WD repeat nucleoporin)", "reagent no.": 2, "G2 robust z-score": 0.904, "call": "inactive"}
{"gene": "AAAS (aladin WD repeat nucleoporin)", "reagent no.": 3, "G2 robust z-score": -0.056, "call": "inactive"}
